Measurements as given in EP4360643A1, “SOCS1 DERIVED PEPTIDES FOR USE IN THE TREATMENT OF LIVER DISEASES” (Fundacion Instituto De Investigacion Sanitaria Fundacion …, priority 2022, dated 2024).
For part of these data: Not every detail of the peptide structures is certain; ends, links or a residue may be inferred. Some compounds share one wording; it may come from a single statement. For part of these data: At least one compound was matched to its structure with a doubt left. Where a SMILES comes first, the peptide text is derived from it. Bridges are numbered along the chain shown (N, C = ends). The star is where a group is joined. Acm = CC(=O)NC*

How the values were obtained:
[1] = tested on: ApoE-/- mice fed with HFD; test: NAFLD induced by high-fat diet (HFD) in ApoE-/- mice; format: in vivo; conditions: 8 weeks of treatment; for ballooning (liver sections) / hepatic steatosis (liver sections, hematoxylin/eosin, Oil red O) / inflammation (liver sections, F4/80): 4µg/g intraperitoneal 3 days per week, vs vehicle
Protocol: In the second model, apolipoprotein E deficient mice (ApoE-/-, males, 10-12 weeks old) were administered high-fat diet (HFD, TD.88137, Envigo) for 8 weeks and treated with vehicle (n=8) or SOCS1-derived peptides (S1, n=6; liPS5, n=6; cPS5, n=6; cPS5Nal, n=6) at the dose of 4µg/g (in 200 µL) via intraperitoneal injection 3 days per week. A group of ApoE-/- mice under standard diet (Chow, n=6) was included as control.
(§1) Mice were housed in ventilated cages (2-4 mice per cage) with usual bedding material and environmental enrichment in a conventional temperature-controlled room (20-22°C) with 12 h light/dark cycle and free access to water and food. Blood glucose (glucometer; NovaPro, Menarini Diagnostics) and body weight levels were monitored once weekly during the follow-up period. At the end of the intervention studies, mice were anaesthetized (ketamine 100 mg/kg and xylazine 10 mg/kg) and euthanized, and blood and tissue samples were collected.
Hepatic lipids were extracted as previously described. Commercial colorimetric kits were used to measure concentrations of total cholesterol (STA-384, Cell Biolabs) and TG (11528, Biosystems), and values were normalized by tissue weight and mg of protein (BCA assay), respectively.
At the time of harvest, liver samples were fixed in 10% buffered formalin, processed for paraffin-embedding and cut (3-4 µm) or embedded in OCT compound and cryosectioned into 7 µm slices. Deparaffinized sections were stained with hematoxylin/eosin and Masson's trichrome to evaluate the histological NAFLD activity score (NAS) considering steatosis, lobular inflammation, ballooning and fibrosis, as previously described or were stained with picrosirious red to assess collagen deposition and fibrotic areas. Periodic Acid Schiff staining was performed for glycogen deposition assessment. Cryosections were stained with Oil red O/ hematoxylin to detect lipid accumulation.
For immunohistochemistry, liver sections were deparaffinized and […] through graded xylene and ethanol. After antigen retrieval (0.01 M citrate buffer pH 6 for 20 min) and blockade of endogenous peroxidase (3% H2O2 in methanol for 30 min) and nonspecific binding (8% host serum for 30 min), slides were incubated overnight at 4°C with primary antibodies against phosphorylated STAT1 (P-STAT1, Tyr701; Thermo Fisher Scientific Cat# 44-376G, RRID:AB_2533642), P-STAT3 (Ser727, Cell Signalling Technology Cat# 9134, RRID:AB_331589), P-nuclear factor erythroid 2-related factor 2 (NRF2, Ser40; Abcam Cat# ab76026, RRID:AB_1524049) and F4/80 monocytes/macrophages (Bio-Rad Cat# MCA497R, RRID:AB_323279). After rinsing in PBS, samples were incubated with respective secondary antibodies conjugated with either horseradish peroxidase or biotin (followed by avidin-biotin complex reagent). Immunoreactive cells were then visualized by the addition of peroxidase substrates (3, 3-diaminobenzidine or 3-amino-9-ethylcarbazole; DAKO) and counterstained with hematoxylin.
(§2) All the histological evaluations were conducted in a blinded fashion. Positive staining was quantified in at least 2 sections per mice using Image-Pro Plus software (Media Cybernetics) and expressed as percentage or number of positive cells per area.
(§3) Total RNA from mouse liver and hepatocytes was extracted using TRI Reagent (Molecular Research Center). Complementary DNA was produced via reverse transcription using High Capacity cDNA Reverse Transcription Kit (Applied Biosystems). The gene expression of mouse genes was determined in duplicate by quantitative real-time PCR using predesigned TaqMan gene expression assays (Applied Biosystems) or Premix ExTaq (Takara). The results for each sample were normalized to the 18S rRNA housekeeping expression, and data expressed as fold increases versus chow diet (in vivo studies) or basal conditions (in vitro studies).

[2] = tested on: mouse hepatocyte cell line; test: In vitro NAFLD model: hepatocytes exposed to palmitic acid (Oil red O staining, real-time PCR); format: cell-based; conditions: induced by palmitic acid 400 µM, 6 hours
Protocol: Immortalized mouse hepatocyte cell line (kindly provided by Dr. Valverde, IIBm Alberto Sols, Madrid) were cultured in Dulbecco's Modified Eagle Medium (DMEM; D6546, Sigma-Aldrich) containing 10% FBS, 100 U/mL penicillin, 100 µg/mL streptomycin and 2 mM L-glutamine (Sigma-Aldrich) and used between 2nd-8th passages. Cells were incubated for 24 hours in medium with 0.5% FBS, pre-treated for 90 min with optimal doses of peptides (59 µM S1 and 25 µM liPS5) and then stimulated for additional 2-16 h with palmitic acid (P-0500, Sigma-Aldrich; stock solution diluted in fatty acid-free BSA to 5 mM) at a final concentration of 400 µM. Cell viability was confirmed by the 3-(4,5-dimethylthiazol-2-yl)-2,5-diphenyltetrazolium bromide tetrazolium (MTT) assay. Lipid accumulation in hepatocytes was determined by Oil red O staining.
as §3

BTBR ob/ob mice = test: NAFLD progression in the obesity and T2D mouse model (BTBR ob/ob, 16 weeks old), with liver lipidomic analysis; format: in vivo; conditions: S1 10 µg/g, baricitinib 3 µg/g, 7 weeks
BKS db/db mice = test: T2D-induced liver damage in BKS db/db mice (leptin receptor deficiency); format: in vivo; conditions: 7 weeks, vs untreated BKS db/db mice
Protocol: Leptin receptor deficiency in diabetes-susceptible strain BKS db/db: Homozygous C57BLKS (BKS) inbred db/db mice (16-weeks old males; Envigo) were randomized to receive in drinking water an angiotensin receptor blocker (Losartan 25 µg/g body weight) or vehicle as tap water (n=25). In addition, two groups of 8 losartan-treated mice were randomized to receive S1 peptide (10 µg/g body weight) or JAK1/2 inhibitor (Baricitinib 3 µg/g body weight) via intraperitoneal injection 3 days per week for 7 weeks. All groups were monitored during 7 weeks of treatment. Heterozygous littermates (db/m; n=10) were used as non-diabetic, non-obese control group.
as §1
At the end of the studies, serum levels of glucose, triglycerides (TG), total cholesterol, high-density lipoprotein cholesterol (HDL), low-density lipoprotein cholesterol (LDL), alanine aminotransferase (ALT or GPT), aspartate aminotransferase (AST), alkaline phosphatase (ALP) and albumin were determined by automated procedures (Roche Cobas autoanalyzer). In some serum samples, GPT activity was determined using Reflotron strips (Roche Diagnostics, Barcelona).
At the time of harvest, liver samples were fixed in 10% buffered formalin, processed for paraffin-embedding and cut (3-4 µm) or embedded in OCT compound and cryosectioned into 7 µm slices. […]
as §2

WT mice fed on MCD = test: NAFLD/NASH mouse model induced by methionine-choline deficient diet (MCD); format: in vivo, C57BL/6J mice; conditions: for F4/80 positive staining, reduced (% vs Vehicle): 4 µg/g intraperitoneal; for circulating levels of transaminase GPT, significantly reduced (% vs Veh): 4 µg/g intraperitoneal 3 days per week
JAK/STAT pathway = JAK/STAT pathway activation in liver of MCD-fed mice (Western blot and immunohistochemistry of P-STAT1, P-STAT3); format: in vivo, C57BL/6J mice; conditions: induced by MCD diet at 3 and 5 weeks; 4 µg/g intraperitoneal
STAT1 protein = test: STAT1 phosphorylation in hepatocytes exposed to palmitic acid (Western blot); format: cell-based, mouse; conditions: hepatocytes exposed to palmitic acid 400 µM, 6 hours; 59 µM S1, 25 µM liPS5
[3] = combined treatment with losartan

| Structure (SMILES) | gene expression of CCL5 in mouse liver [1] | gene expression of CCl2 in mouse liver [1] | gene expression of CXCL10 in mouse liver [1] | gene expression of IL-6 in mouse liver [1] | gene expression of TNFα in mouse liver [1] | gene expression of scavenger receptor CD36 in mouse liver [1] | ballooning (liver sections) [1] | hepatic steatosis (liver sections, hematoxylin/eosin, Oil red O) [1] | inflammation (liver sections, F4/80) [1] | expression of inflammatory gene CCL2 (real-time PCR) [2] | expression of inflammatory gene IL-6 (real-time PCR) [2] | expression of scavenger receptor CD36 (real-time PCR) [2] | also measured |
| --- | --- | --- | --- | --- | --- | --- | --- | --- | --- | --- | --- | --- | --- |
| CC(=O)NCSC[C@@H]1NC(=O)[C@H]([C@@H](C)O)NC(=O)[C@@H](N)CC(=O)NCCCC[C@@H](C(=O)N[C@@H](Cc2c[nH]cn2)C(=O)O)NC(=O)[C@H](CCCNC(=N)N)NC(=O)[C@H](Cc2ccccc2)NC(=O)[C@H]([C@@H](C)O)NC(=O)[C@H](CCC(N)=O)NC(=O)[C@H](CCCNC(=N)N)NC1=O [cPS5, DTC(Acm)RQTFRKH (lactam bridge D1-K9)] (H-DTC(Acm)RQTFRKH-OH; lactam 1-9) | effectively prevented | effectively prevented | effectively prevented | effectively prevented | effectively prevented | effectively prevented | marked decrease | marked decrease | marked decrease | downregulated | downregulated | downregulated |  |
| CCS(=O)(=O)N1CC(CC#N)(n2cc(-c3ncnc4[nH]ccc34)cn2)C1 [baricitinib] |  |  |  |  |  |  |  |  |  |  |  |  | C16:0 (palmitic) in hepatic TG fraction (BTBR ob/ob mice): but not; C16:1n-7 (palmitoleic) in hepatic TG fraction (BTBR ob/ob mice): but not; C18:1n-9cis (oleic) in hepatic TG fraction (BTBR ob/ob mice): but not; hyperglycemia (BKS db/db mice; combined treatment with losartan 25 µg/g, S1 10 µg/g or baricitinib 3 µg/g intraperitoneal): significantly reduced; NAFLD histological features (e.g. steatosis, ballooning and total NAS score) (BKS db/db mice; [3]): improved; biochemical parameters (BKS db/db mice; [3]): improved |
| CC(=O)NCSC[C@H](NC(=O)[C@@H](NC(=O)[C@@H](N)CC(=O)O)[C@@H](C)O)C(=O)N[C@@H](CCCNC(=N)N)C(=O)N[C@@H](CCC(N)=O)C(=O)N[C@H](C(=O)N[C@@H](Cc1ccccc1)C(=O)N[C@@H](CCCNC(=N)N)C(=O)N[C@@H](CO)C(=O)N[C@@H](Cc1c[nH]cn1)C(=O)O)[C@@H](C)O [liPS5, DTC(Acm)RQTFRSH] (H-DTC(Acm)RQTFRSH-OH) | effectively prevented | effectively prevented | effectively prevented | effectively prevented | effectively prevented | effectively prevented | marked decrease | marked decrease | marked decrease | downregulated | downregulated | downregulated | expression of ATP bind cassette transporter G1 (ABCG1) in liver (real-time PCR) (WT mice fed on MCD; MCD diet): upregulated; expression of CD36 in liver (real-time PCR) (WT mice fed on MCD; MCD diet): downregulated; hepatic lipid content (Oil red O positive area) (WT mice fed on MCD; MCD diet, between control vehicle and treated groups): significant differences; gene expression of actin α2 (ACTA2) in liver (WT mice fed on MCD; MCD diet, vs vehicle group): reduced; gene expression of collagen 1α (COL1α) in liver (WT mice fed on MCD; MCD diet, vs vehicle group): reduced; gene expression of transforming growth factor β (TGFβ) in liver (WT mice fed on MCD; MCD diet, vs vehicle group): reduced; F4/80 positive staining, reduced (% vs Vehicle) (WT mice fed on MCD; at 3 weeks of MCD): 45%; circulating levels of transaminase GPT, significantly reduced (% vs Veh) (WT mice fed on MCD; at 3 weeks of MCD): 60%; F4/80 positive staining, reduced (% vs Vehicle) (WT mice fed on MCD; at 5 weeks of MCD): 62%; circulating levels of transaminase GPT, significantly reduced (% vs Veh) (WT mice fed on MCD; at 5 weeks of MCD): 75%; hepatic collagen content (picrosirius red staining) (WT mice fed on MCD; increase induced by MCD diet): partial and significant reversion; NAS score (WT mice fed on MCD; vs vehicle control group, both at 3 and 5 weeks of MCD diet): significant reduction; P-STAT1 levels in liver (JAK/STAT pathway): decreased; P-STAT3 levels in liver (JAK/STAT pathway): decreased; phosphorylation of STAT1 protein (STAT1 protein): prevented |
